# Laboratory results published in PubChem BioAssay AID493014 (National Center for Advancing Translational Sciences (NCATS), 2011).
# The other results are listed elsewhere or left out. The main result of the screen is listed elsewhere. These columns were measured beside it and carry no call. The list favours compounds with an active or inconclusive main result. Potencies come from curve fits of mixed quality, noted in brackets.
# Assay: qHTS Assay to Find Inhibitors of Chronic Active B-Cell Receptor Signaling
# Details: ABC-DLBCL IkBa-CBG/CBR reporter, luminescence ratio (green luciferase fused to IkBa over red control in TMD8 lymphoma cells), 4 h; measured here: CBR red luminescence, cell number
# In short: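 Cell line TMD8 (human ABC DLBCL), stably expressing tet-inducible CBG68-IkBa fusion and CBR; IMDM/0.5% FBS; cpd up to 46 uM; dox induction, 4 h, 37C/5% CO2; dual luminescence; green/red ratio; MG132 control.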
row,Compound,AC50
1,Cc1nn(-c2ccccc2)c2sc(-c3n[nH]c(=S)o3)cc12,"0.651 µM [rising, partial curve]"
2,Cc1ccccc1C(=O)N1CCN(c2ccc(NC(=O)c3ccc4c(c3)OCCO4)cc2)CC1,"8.91 µM [falling, partial curve]"
3,COc1ccccc1CNS(=O)(=O)c1ccc(NC(C)=O)cc1,"29.1 µM [falling, single point]"
4,Fc1ccc2c(c1)C(c1ccncc1)=NNC(c1ccccc1)=N2,"10.3 µM [falling, partial curve]"
5,COc1ccccc1NNC(=O)C(O)(c1ccccc1OC)c1ccccc1OC,"25.9 µM [falling, single point]"
6,COc1ccc(OC)c(N2CC(O)(c3cccs3)[N+]3=C2SCCC3)c1 (stereo not drawn),"0.631 µM [falling, full curve, poor fit]"
7,O=C(NC(Cc1c[nH]c2ccccc12)C(=O)N/N=C/c1ccc(Cl)cc1)c1cccs1 (stereo not drawn),"10 µM [falling, partial curve]"
8,CC(=O)Nc1ccc(CN2CCc3c([nH]c4ccccc34)C2c2ccccn2)cc1 (stereo not drawn),"6.31 µM [rising, single point]"
9,Cc1cc(=O)[nH]c(N/N=C/c2cc(C)n(CC(F)(F)F)c2C)n1,"6.31 µM [falling, single point]"
10,CC(O)(CS(=O)(=O)Cc1ccc(Cl)cc1)C(=O)Nc1cccc(C(F)(F)F)c1 (stereo not drawn),"11.2 µM [falling, partial curve]"
11,ClCc1csc(N/N=C/c2cccs2)n1,"2.82 µM [rising, full curve, poor fit]"
12,Nc1ncncc1-c1ccc2ccccc2c1,"31.6 µM [falling, single point]"
13,CC(C)c1ccc(NC2=NCC(=O)N2Cc2cccs2)cc1,"12.6 µM [rising, partial curve, poor fit]"
14,Cc1[nH]c2ccc(-c3n[nH]c(=S)n3-c3ccccc3)cc2c1C,"13 µM [rising, partial curve, poor fit]"
15,CC1CCN(c2ccccc2NC(=S)NC(=O)C(C)(C)C)CC1,"15.8 µM [rising, partial curve, poor fit]"
16,COc1ccc(Cl)cc1C(=O)OCC(=O)NCc1cccs1,"4.61 µM [rising, partial curve, poor fit]"
17,CCOC(=O)c1ccccc1NC(=O)CN(c1ccccc1)S(=O)(=O)N(C)C,"2.31 µM [rising, partial curve, poor fit]"
18,CCOC(=O)N1CCN(c2nnnn2-c2ccccc2)CC1,"2.06 µM [rising, partial curve, poor fit]"

# Among those listed so far, these have an aryl methoxy group.
row,Compound,AC50
3,COc1ccccc1CNS(=O)(=O)c1ccc(NC(C)=O)cc1,"29.1 µM [falling, single point]"
5,COc1ccccc1NNC(=O)C(O)(c1ccccc1OC)c1ccccc1OC,"25.9 µM [falling, single point]"
6,COc1ccc(OC)c(N2CC(O)(c3cccs3)[N+]3=C2SCCC3)c1 (stereo not drawn),"0.631 µM [falling, full curve, poor fit]"
16,COc1ccc(Cl)cc1C(=O)OCC(=O)NCc1cccs1,"4.61 µM [rising, partial curve, poor fit]"
